Reference: the supplement of paper PMC10849652
This is one part of the list.

Protein sequences, listed by entry. Tags and fused reporters are not part of them. Lines headed by an entry give the natural chain unless they say otherwise; changes in a name come on top.
UniProt P0C2W1: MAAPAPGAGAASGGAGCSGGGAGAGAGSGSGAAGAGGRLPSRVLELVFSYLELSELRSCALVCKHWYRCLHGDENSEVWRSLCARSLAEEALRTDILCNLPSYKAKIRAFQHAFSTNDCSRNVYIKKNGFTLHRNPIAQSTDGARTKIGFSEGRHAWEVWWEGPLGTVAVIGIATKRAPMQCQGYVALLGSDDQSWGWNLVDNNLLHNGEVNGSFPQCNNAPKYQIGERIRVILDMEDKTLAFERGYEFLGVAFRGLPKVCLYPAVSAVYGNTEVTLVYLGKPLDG
UniProt Q8TF40: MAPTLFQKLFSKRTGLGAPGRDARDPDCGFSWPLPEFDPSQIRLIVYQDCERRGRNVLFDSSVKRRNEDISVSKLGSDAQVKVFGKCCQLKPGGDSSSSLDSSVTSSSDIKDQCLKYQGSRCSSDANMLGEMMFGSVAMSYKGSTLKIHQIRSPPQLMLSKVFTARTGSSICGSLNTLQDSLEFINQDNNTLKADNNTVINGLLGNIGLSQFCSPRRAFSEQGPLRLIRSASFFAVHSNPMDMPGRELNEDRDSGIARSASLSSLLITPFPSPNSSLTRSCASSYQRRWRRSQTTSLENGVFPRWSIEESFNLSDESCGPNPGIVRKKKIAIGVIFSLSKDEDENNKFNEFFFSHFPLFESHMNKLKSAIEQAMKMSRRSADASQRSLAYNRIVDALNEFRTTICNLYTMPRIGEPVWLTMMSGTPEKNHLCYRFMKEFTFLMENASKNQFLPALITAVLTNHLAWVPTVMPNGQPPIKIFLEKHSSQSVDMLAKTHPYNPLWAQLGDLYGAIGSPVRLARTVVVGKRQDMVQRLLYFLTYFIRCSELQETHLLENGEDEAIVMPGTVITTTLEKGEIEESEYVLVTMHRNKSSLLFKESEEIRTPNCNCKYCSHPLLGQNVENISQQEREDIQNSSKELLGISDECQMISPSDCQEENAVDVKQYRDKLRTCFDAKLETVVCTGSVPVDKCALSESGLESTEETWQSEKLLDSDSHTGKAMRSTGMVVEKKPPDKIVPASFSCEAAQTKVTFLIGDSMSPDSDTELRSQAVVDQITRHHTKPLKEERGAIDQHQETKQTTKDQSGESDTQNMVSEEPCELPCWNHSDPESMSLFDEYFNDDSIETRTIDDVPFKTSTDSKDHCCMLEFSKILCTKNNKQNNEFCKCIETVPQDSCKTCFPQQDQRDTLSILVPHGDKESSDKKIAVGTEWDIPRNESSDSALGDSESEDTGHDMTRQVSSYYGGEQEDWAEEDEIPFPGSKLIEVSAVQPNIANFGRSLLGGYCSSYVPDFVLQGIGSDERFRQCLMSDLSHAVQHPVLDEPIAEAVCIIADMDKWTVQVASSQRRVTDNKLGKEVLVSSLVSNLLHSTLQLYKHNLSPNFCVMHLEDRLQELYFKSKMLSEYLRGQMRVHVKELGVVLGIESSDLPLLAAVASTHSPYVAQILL
UniProt P12318: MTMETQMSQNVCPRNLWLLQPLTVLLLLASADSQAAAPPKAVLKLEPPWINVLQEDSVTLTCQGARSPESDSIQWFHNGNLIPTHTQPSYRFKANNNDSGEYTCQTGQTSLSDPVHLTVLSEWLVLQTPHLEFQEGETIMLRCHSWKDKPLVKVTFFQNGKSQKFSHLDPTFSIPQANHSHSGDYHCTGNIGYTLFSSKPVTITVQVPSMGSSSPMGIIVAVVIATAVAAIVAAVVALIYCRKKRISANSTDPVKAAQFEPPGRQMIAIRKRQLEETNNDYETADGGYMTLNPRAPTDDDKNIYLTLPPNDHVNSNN
UniProt Q9NVK5: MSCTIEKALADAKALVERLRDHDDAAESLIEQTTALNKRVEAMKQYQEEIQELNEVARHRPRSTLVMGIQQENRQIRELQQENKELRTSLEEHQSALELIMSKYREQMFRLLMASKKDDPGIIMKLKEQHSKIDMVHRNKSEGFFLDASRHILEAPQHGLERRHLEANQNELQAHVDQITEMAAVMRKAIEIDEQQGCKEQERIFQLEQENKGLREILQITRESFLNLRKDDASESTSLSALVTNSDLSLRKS
UniProt Q96IG2: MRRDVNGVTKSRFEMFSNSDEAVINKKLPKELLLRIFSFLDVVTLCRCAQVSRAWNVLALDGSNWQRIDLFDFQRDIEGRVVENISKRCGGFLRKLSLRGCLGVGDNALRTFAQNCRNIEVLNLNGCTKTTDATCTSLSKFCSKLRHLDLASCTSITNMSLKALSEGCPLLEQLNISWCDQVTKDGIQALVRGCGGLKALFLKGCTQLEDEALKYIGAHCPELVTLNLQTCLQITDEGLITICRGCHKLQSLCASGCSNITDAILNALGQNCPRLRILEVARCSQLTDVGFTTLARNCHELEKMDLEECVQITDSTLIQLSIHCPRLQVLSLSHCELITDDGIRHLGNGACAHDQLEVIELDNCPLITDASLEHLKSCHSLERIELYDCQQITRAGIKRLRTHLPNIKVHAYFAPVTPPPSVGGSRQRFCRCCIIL
UniProt Q9UKT8: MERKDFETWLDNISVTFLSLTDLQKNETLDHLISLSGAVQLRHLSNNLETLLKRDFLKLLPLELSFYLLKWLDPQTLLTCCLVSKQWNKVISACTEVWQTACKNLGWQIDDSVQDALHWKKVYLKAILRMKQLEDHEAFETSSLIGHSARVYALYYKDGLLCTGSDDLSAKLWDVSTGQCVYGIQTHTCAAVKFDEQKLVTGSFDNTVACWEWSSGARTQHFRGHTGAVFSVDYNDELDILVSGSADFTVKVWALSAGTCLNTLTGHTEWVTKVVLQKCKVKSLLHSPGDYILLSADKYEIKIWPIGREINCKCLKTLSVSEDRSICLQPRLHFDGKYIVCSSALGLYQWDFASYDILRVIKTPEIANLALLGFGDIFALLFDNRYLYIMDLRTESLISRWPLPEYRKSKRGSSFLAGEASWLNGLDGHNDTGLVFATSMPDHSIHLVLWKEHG
UniProt O14526: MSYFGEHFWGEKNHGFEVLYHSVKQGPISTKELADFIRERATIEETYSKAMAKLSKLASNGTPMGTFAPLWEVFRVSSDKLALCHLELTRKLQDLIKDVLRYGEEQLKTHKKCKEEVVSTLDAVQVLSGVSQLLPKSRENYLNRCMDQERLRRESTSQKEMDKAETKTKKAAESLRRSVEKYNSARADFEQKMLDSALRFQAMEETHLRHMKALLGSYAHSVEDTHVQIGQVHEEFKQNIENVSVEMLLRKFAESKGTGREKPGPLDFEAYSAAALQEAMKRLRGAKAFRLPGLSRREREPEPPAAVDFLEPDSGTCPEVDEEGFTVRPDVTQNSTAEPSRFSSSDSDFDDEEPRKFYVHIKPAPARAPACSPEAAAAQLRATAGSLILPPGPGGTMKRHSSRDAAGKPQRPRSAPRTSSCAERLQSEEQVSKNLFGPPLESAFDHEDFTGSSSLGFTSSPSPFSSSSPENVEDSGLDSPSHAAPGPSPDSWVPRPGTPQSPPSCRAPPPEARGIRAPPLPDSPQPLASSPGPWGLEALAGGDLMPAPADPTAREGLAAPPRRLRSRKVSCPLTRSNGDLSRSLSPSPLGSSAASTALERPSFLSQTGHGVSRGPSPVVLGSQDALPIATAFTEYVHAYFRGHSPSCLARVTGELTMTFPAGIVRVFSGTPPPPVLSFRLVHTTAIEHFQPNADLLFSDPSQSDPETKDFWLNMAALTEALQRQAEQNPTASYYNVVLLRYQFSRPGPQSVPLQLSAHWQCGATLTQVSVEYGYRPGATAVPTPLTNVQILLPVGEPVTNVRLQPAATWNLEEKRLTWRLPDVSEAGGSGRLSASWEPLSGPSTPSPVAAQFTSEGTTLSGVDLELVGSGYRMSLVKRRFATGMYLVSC
UniProt O95684: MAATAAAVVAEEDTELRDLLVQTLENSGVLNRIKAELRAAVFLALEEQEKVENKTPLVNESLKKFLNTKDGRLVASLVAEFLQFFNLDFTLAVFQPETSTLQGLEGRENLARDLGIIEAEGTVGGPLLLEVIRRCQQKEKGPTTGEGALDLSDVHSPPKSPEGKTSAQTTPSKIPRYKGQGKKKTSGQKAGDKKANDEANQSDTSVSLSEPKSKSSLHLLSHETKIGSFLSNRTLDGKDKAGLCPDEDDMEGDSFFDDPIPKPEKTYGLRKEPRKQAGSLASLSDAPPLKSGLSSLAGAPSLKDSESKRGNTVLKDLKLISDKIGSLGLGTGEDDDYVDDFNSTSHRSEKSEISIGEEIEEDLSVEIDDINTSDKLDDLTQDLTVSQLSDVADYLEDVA
UniProt O95363: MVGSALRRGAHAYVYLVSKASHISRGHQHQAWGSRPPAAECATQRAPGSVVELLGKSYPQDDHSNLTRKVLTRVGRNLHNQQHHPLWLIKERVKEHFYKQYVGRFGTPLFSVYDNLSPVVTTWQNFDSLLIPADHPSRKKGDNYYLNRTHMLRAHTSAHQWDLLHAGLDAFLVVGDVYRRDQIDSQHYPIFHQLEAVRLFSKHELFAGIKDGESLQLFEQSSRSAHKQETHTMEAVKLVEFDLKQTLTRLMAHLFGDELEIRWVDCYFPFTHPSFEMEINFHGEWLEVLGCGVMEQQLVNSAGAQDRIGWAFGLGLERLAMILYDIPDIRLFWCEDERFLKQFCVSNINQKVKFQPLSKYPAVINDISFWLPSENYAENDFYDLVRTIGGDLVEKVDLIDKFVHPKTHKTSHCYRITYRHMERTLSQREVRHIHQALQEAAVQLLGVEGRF
UniProt Q8N0W3: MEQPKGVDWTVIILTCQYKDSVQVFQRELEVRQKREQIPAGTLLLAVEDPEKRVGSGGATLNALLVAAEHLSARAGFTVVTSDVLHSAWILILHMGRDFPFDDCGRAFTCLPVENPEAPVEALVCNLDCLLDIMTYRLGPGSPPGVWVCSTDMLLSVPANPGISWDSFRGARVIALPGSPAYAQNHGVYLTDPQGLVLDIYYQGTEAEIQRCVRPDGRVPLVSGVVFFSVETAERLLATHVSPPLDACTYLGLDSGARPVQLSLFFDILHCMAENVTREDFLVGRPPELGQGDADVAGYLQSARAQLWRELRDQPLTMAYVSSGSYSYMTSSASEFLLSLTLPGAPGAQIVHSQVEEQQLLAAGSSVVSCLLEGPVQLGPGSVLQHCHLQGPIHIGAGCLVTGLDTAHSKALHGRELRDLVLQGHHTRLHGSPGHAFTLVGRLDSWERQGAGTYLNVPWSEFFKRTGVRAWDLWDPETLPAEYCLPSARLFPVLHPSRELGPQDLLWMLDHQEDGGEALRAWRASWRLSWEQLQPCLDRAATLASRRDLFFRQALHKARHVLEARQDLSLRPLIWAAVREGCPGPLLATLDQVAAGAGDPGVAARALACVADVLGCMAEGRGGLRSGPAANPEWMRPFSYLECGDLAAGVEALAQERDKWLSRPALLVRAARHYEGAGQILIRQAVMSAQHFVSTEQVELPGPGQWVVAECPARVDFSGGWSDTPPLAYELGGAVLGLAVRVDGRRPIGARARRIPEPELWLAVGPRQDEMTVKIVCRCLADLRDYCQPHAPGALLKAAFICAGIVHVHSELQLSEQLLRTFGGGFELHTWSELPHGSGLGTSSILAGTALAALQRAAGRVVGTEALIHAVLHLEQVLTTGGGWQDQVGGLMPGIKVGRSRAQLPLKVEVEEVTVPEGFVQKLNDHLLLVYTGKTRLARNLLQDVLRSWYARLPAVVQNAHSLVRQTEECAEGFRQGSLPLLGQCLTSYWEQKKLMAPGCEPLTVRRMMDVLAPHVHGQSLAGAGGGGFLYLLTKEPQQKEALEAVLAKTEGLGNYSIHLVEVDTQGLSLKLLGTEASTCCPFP
UniProt Q96GI7: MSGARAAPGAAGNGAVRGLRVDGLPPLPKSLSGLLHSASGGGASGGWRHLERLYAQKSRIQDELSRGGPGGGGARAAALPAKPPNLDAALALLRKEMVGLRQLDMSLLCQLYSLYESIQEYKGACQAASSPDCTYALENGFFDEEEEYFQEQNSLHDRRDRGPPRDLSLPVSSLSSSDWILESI
UniProt Q9Y5Y0: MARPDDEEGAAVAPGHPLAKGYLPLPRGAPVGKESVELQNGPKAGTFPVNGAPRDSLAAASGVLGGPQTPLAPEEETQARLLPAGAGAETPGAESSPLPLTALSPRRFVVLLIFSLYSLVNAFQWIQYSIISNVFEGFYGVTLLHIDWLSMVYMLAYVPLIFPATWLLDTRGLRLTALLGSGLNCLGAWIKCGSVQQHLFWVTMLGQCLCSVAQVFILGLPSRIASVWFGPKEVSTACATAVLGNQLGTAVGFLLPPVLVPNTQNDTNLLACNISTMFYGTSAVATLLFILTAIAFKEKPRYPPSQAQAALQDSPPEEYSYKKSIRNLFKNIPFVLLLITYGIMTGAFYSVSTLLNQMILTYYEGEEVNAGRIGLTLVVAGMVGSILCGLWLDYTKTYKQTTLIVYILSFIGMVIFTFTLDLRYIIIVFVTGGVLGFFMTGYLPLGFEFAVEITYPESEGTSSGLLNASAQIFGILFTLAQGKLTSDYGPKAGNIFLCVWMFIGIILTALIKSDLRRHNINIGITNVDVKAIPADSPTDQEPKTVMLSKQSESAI

Legend:
Assay in all cases: log2 fold change, soluble protein after heating vs DMSO (PISA); higher = thermal stabilisation; K562 lysate, 10 uM; active = over 0.2 and 3.5 SD of the protein, either way, in both replicates (recomputed)
[1] = compound: NCC(=O)Nc1ccc(-n2nc(C(F)(F)F)cc2-c2ccc3c(ccc4ccccc43)c2)cc1
How it was run: (§1)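 Values give the log-two fold change in thermal stability against solvent controls, from duplicates. Crude K562 extract at 1 mg/mL protein, made by dounce homogenisation in PBS pH 7.4 with 1 mM MgCl2, was treated with 10 μM compound for 30 min. After 3 min heating across 48°C-58°C, aliquots were pooled, adjusted to 0.5% NP-40 at 4°C and centrifuged at 21,000xg for 90 min. The supernatant was measured by TMTpro 16plex LC-MS/MS with channel sums equalised.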

vorinostat = compound: O=C(CCCCCCC(=O)Nc1ccccc1)NO [vorinostat]
How it was run: as §1

silmitasertib = compound: O=C(O)c1ccc2c(c1)nc(Nc1cccc(Cl)c1)c1ccncc12 [silmitasertib]
How it was run: as §1

[2] = compound: O=C1NC(=O)C(c2cnc3ccccn23)=C1c1cn2c3c(cc(F)cc13)CN(C(=O)N1CCCCC1)CC2
How it was run: as §1

entospletinib = compound: c1cn2cc(-c3ccc4cn[nH]c4c3)nc(Nc3ccc(N4CCOCC4)cc3)c2n1 [entospletinib]
How it was run: as §1

Measured: log2 fold change

FBXO4 (UniProt Q9UKT5)
inactive: [1] -0.002 | vorinostat -0.175 | silmitasertib -0.021 | [2] -0.007 | entospletinib -0.071

FEZ2 isoform 2 (UniProt Q9UHY8)
inactive: [1] 0.027 | vorinostat -0.003 | silmitasertib 0.048 | [2] 0.027 | entospletinib 0.011

FKBP8 isoform 2 (UniProt Q14318)
inactive: [1] 0.024 | silmitasertib 0.001 | [2] -0.028 | entospletinib 0.018
active: vorinostat -0.219

FARSB (UniProt Q9NSD9)
inactive: [1] -0.01 | vorinostat 0.015 | silmitasertib 0.013 | [2] -0.013 | entospletinib 0.011

FAT2 (UniProt Q9NYQ8)
inactive: [1] 0.393 | vorinostat 0.001 | silmitasertib 0.098 | [2] 0.178 | entospletinib 0.162

FHL3 (UniProt Q13643)
inactive: [1] -0.025 | vorinostat 0.107 | silmitasertib 0.028 | [2] 0.005 | entospletinib -0.034

FNTA (UniProt P49354)
inactive: [1] -0.027 | vorinostat 0.06 | silmitasertib 0.027 | [2] 0.027 | entospletinib -0.03

FBXO45 (UniProt P0C2W1)
inactive: [1] -0.013 | silmitasertib 0.127 | [2] 0.021 | entospletinib -0.05
active: vorinostat -0.367

FBRS (UniProt J3KNZ9)
inactive: [1] -0.066 | vorinostat -0.056 | silmitasertib 0.051 | [2] 0 | entospletinib -0.102

FNIP1 isoform 3 (UniProt Q8TF40)
inactive: [1] 0.02 | vorinostat 0.008 | silmitasertib 0.015 | [2] 0.001 | entospletinib -0.067

FIS1 (UniProt Q9Y3D6)
inactive: [1] -0.003 | vorinostat 0.132 | silmitasertib -0.119 | [2] -0.012 | entospletinib -0.016

FCGR2A (UniProt P12318)
inactive: [1] 0.039 | vorinostat 0.111 | silmitasertib 0 | [2] -0.001 | entospletinib -0.022

FMR1 (UniProt Q06787)
inactive: [1] -0.031 | vorinostat 0.117 | silmitasertib 0.049 | [2] 0.031 | entospletinib -0.01

FER (UniProt P16591)
inactive: [1] -0.042 | vorinostat 0.128 | silmitasertib -0.213 | [2] -0.098 | entospletinib 0.2

FKBP4 (UniProt Q02790)
inactive: [1] -0.002 | vorinostat 0.035 | silmitasertib -0.012 | [2] -0.016 | entospletinib 0.004

FGFR1OP2 (UniProt Q9NVK5)
inactive: [1] 0.066 | vorinostat -0.015 | silmitasertib 0.041 | [2] -0.021 | entospletinib 0.015

FAT3 isoform 1 (UniProt Q8TDW7)
inactive: [1] 0.071 | vorinostat 0.137 | silmitasertib -0.052 | [2] 0.074 | entospletinib 0.03

FKRP (UniProt Q9H9S5)
inactive: [1] -0.008 | vorinostat 0.077 | silmitasertib -0.019 | [2] -0.013 | entospletinib -0.034

FLT4 (UniProt P35916)
inactive: [1] -0.097 | silmitasertib 0.178 | entospletinib 0.054
active: vorinostat -0.435

FBXL20 (UniProt Q96IG2)
inactive: [1] -0.052 | vorinostat -0.19 | silmitasertib -0.036 | [2] 0.046 | entospletinib -0.057

FLOT1 (UniProt O75955)
inactive: [1] 0.01 | vorinostat 0.148 | silmitasertib -0.014 | [2] 0.002 | entospletinib 0.031

FBXW2 (UniProt Q9UKT8)
inactive: [1] 0.005 | [2] 0.079

FCHO1 (UniProt O14526)
active: vorinostat -0.286
inactive: [1] 0.041 | silmitasertib 0.03 | [2] -0.006 | entospletinib 0.024

FGFR1OP (UniProt O95684)
inactive: [1] 0.067 | vorinostat 0.098 | silmitasertib -0.056 | [2] 0.03 | entospletinib -0.003

FBXO3 (UniProt Q9UK99)
inactive: [1] 0.005 | vorinostat 0.089 | silmitasertib 0.078 | [2] 0.061 | entospletinib -0.015

FBXW8 (UniProt Q8N3Y1)
inactive: [1] 0.088 | vorinostat 0.117 | silmitasertib -0.189 | entospletinib -0.132

FARP2 (UniProt H7C3M7)
inactive: [1] -0.079 | vorinostat 0.062 | silmitasertib -0.188 | [2] 0.032 | entospletinib -0.013

FBXO38 (UniProt Q6PIJ6)
inactive: [1] -0.029 | vorinostat -0.393 | silmitasertib 0.34 | [2] -0.159 | entospletinib -0.173

FLCN (UniProt Q8NFG4)
inactive: [1] 0.073 | vorinostat -0.1 | silmitasertib 0.012 | [2] 0.051 | entospletinib -0.019

FKBPL (UniProt Q9UIM3)
inactive: [1] 0.034 | vorinostat -0.011 | silmitasertib -0.052 | [2] -0.031 | entospletinib -0.024

FDPS (UniProt P14324)
inactive: [1] 0.047 | vorinostat -0.085 | silmitasertib 0.035 | [2] -0.023 | entospletinib 0.037

FIP1L1 (UniProt Q6UN15)
inactive: [1] 0.046 | vorinostat 0.049 | silmitasertib -0.079 | [2] -0.021 | entospletinib 0

FARS2 (UniProt O95363)
inactive: [1] 0.045 | vorinostat -0.321 | silmitasertib -0.083 | [2] -0.007 | entospletinib -0.027

FEN1 (UniProt P39748)
inactive: [1] 0.032 | vorinostat 0.001 | silmitasertib -0.045 | [2] 0.019 | entospletinib 0.03

FBXL18 isoform 4 (UniProt Q96ME1)
inactive: [1] 0.047 | vorinostat -0.066 | silmitasertib 0.052 | [2] -0.001 | entospletinib 0.002

FAU (UniProt E9PR30)
active: vorinostat 0.212
inactive: [1] 0.006 | silmitasertib 0.047 | [2] -0.006 | entospletinib 0.016

FNTB (UniProt P49356)
inactive: [1] 0.03 | vorinostat 0.03 | silmitasertib -0.018 | [2] -0.032 | entospletinib -0.048

FBL (UniProt P22087)
inactive: [1] 0.058 | vorinostat 0.013 | silmitasertib 0.026 | [2] 0.013 | entospletinib -0.012

FKBP7 (UniProt Q9Y680)
inactive: [1] 0.012 | vorinostat 0.09 | silmitasertib 0.045 | [2] -0.014 | entospletinib -0.018

FHOD1 (UniProt Q9Y613)
active: vorinostat -0.47
inactive: [1] -0.018 | silmitasertib 0.008 | [2] -0.02 | entospletinib -0.002

FBXO9 (UniProt Q9UK97)
inactive: [1] -0.154 | vorinostat -0.135 | silmitasertib 0.009 | [2] -0.046 | entospletinib -0.188

FEM1A (UniProt Q9BSK4)
inactive: [1] 0.104 | vorinostat 0.026 | silmitasertib 0.035 | entospletinib -0.011

FARSA (UniProt Q9Y285)
active: vorinostat 0.381
inactive: [1] -0.025 | silmitasertib 0.007 | [2] -0.006 | entospletinib 0.003

FANCD2 isoform 1 (UniProt Q9BXW9)
inactive: [1] 0.078 | silmitasertib -0.012 | [2] 0.008 | entospletinib -0.005
active: vorinostat -0.25

FBXO2 (UniProt Q9UK22)
inactive: [1] -0.068 | vorinostat 0.162 | silmitasertib -0.176 | [2] 0.041 | entospletinib 0.14

FASTKD5 (UniProt Q7L8L6)
inactive: [1] 0.016 | silmitasertib 0.053 | [2] 0.022 | entospletinib -0.008
active: vorinostat -0.354

FHAD1 isoform 3 (UniProt B1AJZ9)
inactive: [1] 0.327 | vorinostat 0.408 | silmitasertib -0.107 | entospletinib 0.061

FCSK (UniProt Q8N0W3)
inactive: [1] -0.016 | vorinostat 0.056 | silmitasertib 0.001 | [2] 0.063 | entospletinib 0.026

FKBP14 (UniProt Q9NWM8)
inactive: [1] 0.047 | vorinostat 0.086 | silmitasertib 0.009 | [2] 0.056 | entospletinib 0.021

FAM89A (UniProt Q96GI7)
inactive: [1] -0.274 | vorinostat 0.003 | silmitasertib 0.001 | [2] 0.024 | entospletinib 0.021

FLVCR1 (UniProt Q9Y5Y0)
inactive: [1] 0.035 | vorinostat 0.107 | silmitasertib -0.025 | [2] 0.066 | entospletinib 0

FAM91A1 (UniProt Q658Y4)
inactive: [1] -0.029 | vorinostat -0.007 | silmitasertib 0.008 | [2] 0.034 | entospletinib 0.019

FBXL4 (UniProt Q9UKA2)
inactive: vorinostat -0.01 | silmitasertib -0.08 | entospletinib -0.009

Reprinted from above (10 entries):
FANCD2 isoform 1 (UniProt Q9BXW9)
inactive: [1] 0.078 | silmitasertib -0.012 | [2] 0.008 | entospletinib -0.005
active: vorinostat -0.25

FBXO2 (UniProt Q9UK22)
inactive: [1] -0.068 | vorinostat 0.162 | silmitasertib -0.176 | [2] 0.041 | entospletinib 0.14

FASTKD5 (UniProt Q7L8L6)
inactive: [1] 0.016 | silmitasertib 0.053 | [2] 0.022 | entospletinib -0.008
active: vorinostat -0.354

FHAD1 isoform 3 (UniProt B1AJZ9)
inactive: [1] 0.327 | vorinostat 0.408 | silmitasertib -0.107 | entospletinib 0.061

FCSK (UniProt Q8N0W3)
inactive: [1] -0.016 | vorinostat 0.056 | silmitasertib 0.001 | [2] 0.063 | entospletinib 0.026

FKBP14 (UniProt Q9NWM8)
inactive: [1] 0.047 | vorinostat 0.086 | silmitasertib 0.009 | [2] 0.056 | entospletinib 0.021

FAM89A (UniProt Q96GI7)
inactive: [1] -0.274 | vorinostat 0.003 | silmitasertib 0.001 | [2] 0.024 | entospletinib 0.021

FLVCR1 (UniProt Q9Y5Y0)
inactive: [1] 0.035 | vorinostat 0.107 | silmitasertib -0.025 | [2] 0.066 | entospletinib 0

FAM91A1 (UniProt Q658Y4)
inactive: [1] -0.029 | vorinostat -0.007 | silmitasertib 0.008 | [2] 0.034 | entospletinib 0.019

FBXL4 (UniProt Q9UKA2)
inactive: vorinostat -0.01 | silmitasertib -0.08 | entospletinib -0.009

Additional records.

FARP1 isoform 2 (UniProt Q9Y4F1)
inactive: [1] 0.059 | [2] 0.034 | entospletinib 0.015

FMR1 isoform 9 (UniProt Q06787)
inactive: vorinostat 0.274 | silmitasertib -0.091 | [2] 0.233

FANCG (UniProt O15287)
inactive: [1] 0.123 | [2] -0.009 | entospletinib -0.003
